According to paper PMC11357106:
Results are given in words; binding and its absence hold for the method and conditions named. For some assays here: Binding seen in cells or lysates may run through a third protein. Some binding calls cover weakened binding; strength is not graded here. Sequences can lack the tags named with a protein.

Sequences of proteins named here, by UniProt entry; tags and fusion partners are left off.
UniProt Q9C5X9: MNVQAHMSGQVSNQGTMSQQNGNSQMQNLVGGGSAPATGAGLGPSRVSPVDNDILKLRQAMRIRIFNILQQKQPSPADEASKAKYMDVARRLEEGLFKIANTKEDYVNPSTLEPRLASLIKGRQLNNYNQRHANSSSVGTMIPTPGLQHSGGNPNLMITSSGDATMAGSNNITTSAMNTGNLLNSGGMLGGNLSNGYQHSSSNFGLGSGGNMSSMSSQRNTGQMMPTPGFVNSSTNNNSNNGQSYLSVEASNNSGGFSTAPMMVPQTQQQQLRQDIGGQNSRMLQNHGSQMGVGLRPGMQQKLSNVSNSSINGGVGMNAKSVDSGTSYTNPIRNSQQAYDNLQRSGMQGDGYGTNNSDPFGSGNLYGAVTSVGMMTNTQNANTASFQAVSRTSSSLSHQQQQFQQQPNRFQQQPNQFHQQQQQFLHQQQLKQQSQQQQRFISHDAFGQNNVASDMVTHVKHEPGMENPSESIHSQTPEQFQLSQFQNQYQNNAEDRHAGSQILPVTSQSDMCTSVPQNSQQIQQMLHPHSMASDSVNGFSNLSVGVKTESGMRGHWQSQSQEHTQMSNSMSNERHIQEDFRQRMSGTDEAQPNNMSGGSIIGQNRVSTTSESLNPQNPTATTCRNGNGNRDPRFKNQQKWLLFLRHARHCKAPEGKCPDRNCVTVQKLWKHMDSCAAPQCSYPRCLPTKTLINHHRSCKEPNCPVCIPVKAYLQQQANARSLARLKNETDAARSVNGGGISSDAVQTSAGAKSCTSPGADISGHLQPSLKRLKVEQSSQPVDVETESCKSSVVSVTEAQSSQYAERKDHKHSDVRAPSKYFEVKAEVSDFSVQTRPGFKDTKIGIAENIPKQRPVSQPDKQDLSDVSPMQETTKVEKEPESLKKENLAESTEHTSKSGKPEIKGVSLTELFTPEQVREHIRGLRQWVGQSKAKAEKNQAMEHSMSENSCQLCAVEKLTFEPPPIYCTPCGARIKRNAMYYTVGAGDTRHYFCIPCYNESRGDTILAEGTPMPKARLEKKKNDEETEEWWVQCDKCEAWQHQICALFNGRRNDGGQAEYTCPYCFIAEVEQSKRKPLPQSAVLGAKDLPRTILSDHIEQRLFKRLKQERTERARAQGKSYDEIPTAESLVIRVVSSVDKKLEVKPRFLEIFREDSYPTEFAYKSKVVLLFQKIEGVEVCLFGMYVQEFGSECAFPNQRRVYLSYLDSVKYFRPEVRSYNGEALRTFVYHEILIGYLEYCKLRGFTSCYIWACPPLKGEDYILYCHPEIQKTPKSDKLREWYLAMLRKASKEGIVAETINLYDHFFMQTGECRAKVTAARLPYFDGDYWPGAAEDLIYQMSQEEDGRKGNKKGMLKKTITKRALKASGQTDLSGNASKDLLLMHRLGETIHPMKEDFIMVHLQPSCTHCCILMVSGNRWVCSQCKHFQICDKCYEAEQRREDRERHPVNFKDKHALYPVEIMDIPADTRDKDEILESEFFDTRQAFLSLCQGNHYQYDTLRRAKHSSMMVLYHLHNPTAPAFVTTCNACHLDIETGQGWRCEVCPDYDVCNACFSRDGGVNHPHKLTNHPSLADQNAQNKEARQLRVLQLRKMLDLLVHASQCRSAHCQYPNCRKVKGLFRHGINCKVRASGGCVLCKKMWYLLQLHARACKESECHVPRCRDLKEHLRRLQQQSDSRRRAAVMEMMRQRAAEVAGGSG
UniProt Q6EVK6: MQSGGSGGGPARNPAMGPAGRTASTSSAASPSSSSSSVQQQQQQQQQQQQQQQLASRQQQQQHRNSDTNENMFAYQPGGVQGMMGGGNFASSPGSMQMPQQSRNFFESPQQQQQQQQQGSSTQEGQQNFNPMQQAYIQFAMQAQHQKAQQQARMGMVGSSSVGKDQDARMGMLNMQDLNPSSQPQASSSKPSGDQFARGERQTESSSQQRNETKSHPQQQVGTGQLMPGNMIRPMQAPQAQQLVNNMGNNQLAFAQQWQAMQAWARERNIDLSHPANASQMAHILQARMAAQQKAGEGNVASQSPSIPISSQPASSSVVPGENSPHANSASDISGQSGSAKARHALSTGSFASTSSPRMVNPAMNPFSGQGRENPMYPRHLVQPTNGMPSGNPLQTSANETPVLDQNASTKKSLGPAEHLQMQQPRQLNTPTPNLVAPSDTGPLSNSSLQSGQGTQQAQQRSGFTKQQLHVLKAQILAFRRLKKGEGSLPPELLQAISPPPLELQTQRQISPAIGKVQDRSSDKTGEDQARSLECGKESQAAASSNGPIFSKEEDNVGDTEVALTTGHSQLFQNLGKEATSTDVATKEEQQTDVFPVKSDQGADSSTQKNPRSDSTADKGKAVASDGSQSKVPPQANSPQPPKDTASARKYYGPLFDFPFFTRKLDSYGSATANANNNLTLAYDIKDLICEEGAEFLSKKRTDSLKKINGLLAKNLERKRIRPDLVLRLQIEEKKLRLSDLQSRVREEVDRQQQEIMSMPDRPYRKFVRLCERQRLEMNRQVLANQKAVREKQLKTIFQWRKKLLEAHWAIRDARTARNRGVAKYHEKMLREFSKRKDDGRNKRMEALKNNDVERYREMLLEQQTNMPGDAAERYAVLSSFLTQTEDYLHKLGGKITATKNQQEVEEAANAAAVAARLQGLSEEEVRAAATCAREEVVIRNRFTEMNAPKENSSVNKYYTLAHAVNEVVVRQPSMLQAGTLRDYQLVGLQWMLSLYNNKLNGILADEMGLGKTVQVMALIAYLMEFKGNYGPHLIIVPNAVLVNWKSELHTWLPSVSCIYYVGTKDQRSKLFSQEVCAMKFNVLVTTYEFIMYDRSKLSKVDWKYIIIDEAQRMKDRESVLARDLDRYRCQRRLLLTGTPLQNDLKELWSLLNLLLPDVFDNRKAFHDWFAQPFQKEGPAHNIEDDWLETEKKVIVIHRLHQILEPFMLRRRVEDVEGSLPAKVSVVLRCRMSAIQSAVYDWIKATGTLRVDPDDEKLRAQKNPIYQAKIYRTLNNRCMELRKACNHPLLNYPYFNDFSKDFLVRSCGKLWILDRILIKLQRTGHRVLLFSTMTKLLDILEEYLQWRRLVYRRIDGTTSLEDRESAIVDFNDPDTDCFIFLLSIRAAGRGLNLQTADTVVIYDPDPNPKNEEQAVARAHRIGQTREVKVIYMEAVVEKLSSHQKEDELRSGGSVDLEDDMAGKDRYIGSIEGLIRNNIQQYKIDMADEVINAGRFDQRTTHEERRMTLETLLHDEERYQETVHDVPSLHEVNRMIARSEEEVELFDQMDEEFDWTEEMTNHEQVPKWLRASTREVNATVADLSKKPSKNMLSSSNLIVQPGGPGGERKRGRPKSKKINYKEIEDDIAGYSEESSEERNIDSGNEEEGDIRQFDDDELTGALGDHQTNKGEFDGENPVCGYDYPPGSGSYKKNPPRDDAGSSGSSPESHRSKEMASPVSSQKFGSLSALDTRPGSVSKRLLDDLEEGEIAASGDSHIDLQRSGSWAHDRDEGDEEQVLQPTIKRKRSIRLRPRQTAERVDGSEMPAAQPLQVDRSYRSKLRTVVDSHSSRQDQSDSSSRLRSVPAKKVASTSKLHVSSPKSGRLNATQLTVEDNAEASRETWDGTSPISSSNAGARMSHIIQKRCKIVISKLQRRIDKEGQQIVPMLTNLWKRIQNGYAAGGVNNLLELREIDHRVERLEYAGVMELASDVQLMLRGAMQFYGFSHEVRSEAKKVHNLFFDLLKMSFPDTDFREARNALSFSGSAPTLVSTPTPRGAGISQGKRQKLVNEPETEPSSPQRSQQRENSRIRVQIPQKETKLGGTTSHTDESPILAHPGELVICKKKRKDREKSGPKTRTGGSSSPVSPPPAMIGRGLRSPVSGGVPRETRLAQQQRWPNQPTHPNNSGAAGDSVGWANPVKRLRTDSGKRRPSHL

B1: FAMA as AD-fusion (yeast two-hybrid) (protein, UniProt Q56YJ8 1-414)
chain: MDKDYSAPNFLGESSGGNDDNSSGMIDYMFNRNLQQQQKQSMPQQQQHQLSPSGFGATPFDKMNFSDVMQFADFGSKLALNQTRNQDDQETGIDPVYFLKFPVLNDKIEDHNQTQHLMPSHQTSQEGGECGGNIGNVFLEEKEDQDDDNDNNSVQLRFIGGEEEDRENKNVTKKEVKSKRKRARTSKTSEEVESQRMTHIAVERNRRKQMNEHLRVLRSLMPGSYVQRGDQASIIGGAIEFVRELEQLLQCLESQKRRRILGETGRDMTTTTTSSSSPITTVANQAQPLIITGNVTELEGGGGLREETAENKSCLADVEVKLLGFDAMIKILSRRRPGQLIKTIAALEDLHLSILHTNITTMEQTVLYSFNVKITSETRFTAEDIASSIQQIFSFIHANTNISGSSNLGNIVFT
B2: MUTE as AD-fusion (yeast two-hybrid) (protein, UniProt Q9M8K6 1-202)
chain: MSHIAVERNRRRQMNEHLKSLRSLTPCFYIKRGDQASIIGGVIEFIKELQQLVQVLESKKRRKTLNRPSFPYDHQTIEPSSLGAATTRVPFSRIENVMTTSTFKEVGACCNSPHANVEAKISGSNVVLRVVSRRIVGQLVKIISVLEKLSFQVLHLNISSMEETVLYFFVVKIGLECHLSLEELTLEVQKSFVSDEVIVSTN
B3: SCRM as AD-fusion (yeast two-hybrid) (protein, UniProt Q9LSE2 1-494)
chain: MGLDGNNGGGVWLNGGGGEREENEEGSWGRNQEDGSSQFKPMLEGDWFSSNQPHPQDLQMLQNQPDFRYFGGFPFNPNDNLLLQHSIDSSSSCSPSQAFSLDPSQQNQFLSTNNNKGCLLNVPSSANPFDNAFEFGSESGFLNQIHAPISMGFGSLTQLGNRDLSSVPDFLSARSLLAPESNNNNTMLCGGFTAPLELEGFGSPANGGFVGNRAKVLKPLEVLASSGAQPTLFQKRAAMRQSSGSKMGNSESSGMRRFSDDGDMDETGIEVSGLNYESDEINESGKAAESVQIGGGGKGKKKGMPAKNLMAERRRRKKLNDRLYMLRSVVPKISKMDRASILGDAIDYLKELLQRINDLHNELESTPPGSLPPTSSSFHPLTPTPQTLSCRVKEELCPSSLPSPKGQQARVEVRLREGRAVNIHMFCGRRPGLLLATMKALDNLGLDVQQAVISCFNGFALDVFRAEQCQEGQEILPDQIKAVLFDTAGYAGMI
B4: LUH as BD-fusion (yeast two-hybrid) (protein, UniProt O48847 1-787)
chain: MAQSNWEADKMLDVYIYDYLVKKKLHNTAKSFMTEGKVSPDPVAIDAPGGFLFEWWSVFWDIFIARTNEKHSEAAAAYIEAQQGKAKEQQMQIQQLQMMRQAQMQRRDPNHPSLGGPMNAIGSEGMIGQSNASALAAKMYEERMKQPNPMNSETSQPHLDARMALLKSATNHHGQIVQGNHQGGVSAALQQIQSRTQQPTEIKTEVNLGTSPRQLPVDPSTVYGQGILQSKPGMGSAGLNPGVSGLPLKGWPLTGIEQMRPGLGGPQVQKSFLQNQSQFQLSPQQQQHQMLAQVQAQGNMTNSPMYGGDMDPRRFTGLPRGNLNPKDGQQNANDGSIGSPMQSSSSKHISMPPVQQSSSQQQDHLLSQQSQQNNRKRKGPSSSGPANSTGTGNTVGPSNSQPSTPSTHTPVDGVAIAGNMHHVNSMPKGPMMYGSDGIGGLASSANQLLQDDMDQFGDVGALEDNVESFLSQDDGDGGSLFGTLKRNSSVHTETSKPFSFNEVSCIRKSASKVICCSFSYDGKLLASAGHDKKVFIWNMETLQVESTPEEHAHIITDVRFRPNSTQLATSSFDKTIKIWDASDPGYFLRTISGHAAPVMSIDFHPKKTELLCSCDSNNDIRFWDINASCVRAVKGASTQVRFQPRTGQFLAAASENTVSIFDIENNNKRVNIFKGHSSNVHSVCWSPNGELVASVSEDAVKLWSLSSGDCIHELSNSGNKFHSVVFHPSYPDLLVIGGYQAIELWNTMENKCMTVAGHECVISALAQSPSTGVVASASHDKSVKIWK
B5: FAMA as split-YFP fusion (BiFC) (protein, UniProt Q56YJ8 1-414)
chain: MDKDYSAPNFLGESSGGNDDNSSGMIDYMFNRNLQQQQKQSMPQQQQHQLSPSGFGATPFDKMNFSDVMQFADFGSKLALNQTRNQDDQETGIDPVYFLKFPVLNDKIEDHNQTQHLMPSHQTSQEGGECGGNIGNVFLEEKEDQDDDNDNNSVQLRFIGGEEEDRENKNVTKKEVKSKRKRARTSKTSEEVESQRMTHIAVERNRRKQMNEHLRVLRSLMPGSYVQRGDQASIIGGAIEFVRELEQLLQCLESQKRRRILGETGRDMTTTTTSSSSPITTVANQAQPLIITGNVTELEGGGGLREETAENKSCLADVEVKLLGFDAMIKILSRRRPGQLIKTIAALEDLHLSILHTNITTMEQTVLYSFNVKITSETRFTAEDIASSIQQIFSFIHANTNISGSSNLGNIVFT
B6: MUTE as YFP-N fusion (BiFC) (protein, UniProt Q9M8K6 1-202)
chain: MSHIAVERNRRRQMNEHLKSLRSLTPCFYIKRGDQASIIGGVIEFIKELQQLVQVLESKKRRKTLNRPSFPYDHQTIEPSSLGAATTRVPFSRIENVMTTSTFKEVGACCNSPHANVEAKISGSNVVLRVVSRRIVGQLVKIISVLEKLSFQVLHLNISSMEETVLYFFVVKIGLECHLSLEELTLEVQKSFVSDEVIVSTN

Key:
[1] = target: T1, LUH as BD-fusion (yeast two-hybrid) (Arabidopsis thaliana) (UniProt O48847); test: two-hybrid; Matchmaker GAL4 system, yeast AH109; bHLHs as AD-fusions, SWI/SNF components and HAC1 as BD-fusions; growth on SD-LTHA, 3-AT added for SWI3C, BRIP2 and HAC1 to suppress autoactivation
T1 sequence: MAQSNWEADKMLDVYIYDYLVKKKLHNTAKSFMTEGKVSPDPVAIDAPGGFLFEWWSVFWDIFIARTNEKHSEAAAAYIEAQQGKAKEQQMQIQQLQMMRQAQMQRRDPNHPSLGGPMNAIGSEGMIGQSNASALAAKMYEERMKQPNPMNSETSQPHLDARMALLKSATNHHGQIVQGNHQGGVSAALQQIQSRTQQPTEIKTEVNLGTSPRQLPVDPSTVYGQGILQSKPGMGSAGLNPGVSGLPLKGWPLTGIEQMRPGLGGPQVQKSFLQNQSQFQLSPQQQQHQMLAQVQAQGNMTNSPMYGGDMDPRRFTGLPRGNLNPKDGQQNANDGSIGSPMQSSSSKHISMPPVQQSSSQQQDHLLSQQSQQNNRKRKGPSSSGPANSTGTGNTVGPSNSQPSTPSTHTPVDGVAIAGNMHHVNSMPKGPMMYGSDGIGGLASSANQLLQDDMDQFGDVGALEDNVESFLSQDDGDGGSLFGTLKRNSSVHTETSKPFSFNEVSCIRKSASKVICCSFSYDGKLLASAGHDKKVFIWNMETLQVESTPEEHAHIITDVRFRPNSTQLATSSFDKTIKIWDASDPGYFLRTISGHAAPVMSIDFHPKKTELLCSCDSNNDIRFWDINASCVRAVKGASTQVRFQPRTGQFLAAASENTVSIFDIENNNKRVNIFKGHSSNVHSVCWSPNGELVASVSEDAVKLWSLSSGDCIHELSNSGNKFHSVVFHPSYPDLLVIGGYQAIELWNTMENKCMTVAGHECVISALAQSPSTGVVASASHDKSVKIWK

[2] = target: HAC1 as BD-fusion (yeast two-hybrid) (Arabidopsis thaliana) (UniProt Q9C5X9); test: as above
[3] = target: BRM as BD-fusion (yeast two-hybrid) (Arabidopsis thaliana) (UniProt Q6EVK6); test: as above
[4] = target: HAC1 as YFP-C fusion (BiFC) (Arabidopsis thaliana) (UniProt Q9C5X9); test: split reporter; BiFC with split Venus/YFP halves in N. benthamiana leaves, Agrobacterium infiltration with p19, imaged 2 days after infiltration; all 4 combinations of N- and C-terminal fusions

| Binder | binding [1] | binding [2] | binding [4] | also measured |
| --- | --- | --- | --- | --- |
| B1 | binds | binds weakly |  |  |
| B2 |  | binds weakly |  |  |
| B3 | binds |  |  | binding [3]: binds |
| B4 |  | binds |  |  |
| B5 |  |  | binds weakly |  |
| B6 |  |  | binds weakly |  |
